In assay [1] the target is human LRP6 E1E2 with a C-terminal 10× His tag, labeled with the dye NT-647 (human) (UniProt O75581). The assay is described as follows: MST; LRP6 E1E2 or E1 labeled with NT-647 at ~5 nM, unlabeled SOST proteins or peptides titrated; 20 mM Tris-Cl pH 7.0, 200 mM NaCl, 0.5 mg/ml BSA, 0.05% Tween 20; 22 °C; Monolith NT.115 Pico; both purified.
Assay [2] concerns the target human LRP6 E1E2 (P21–P630) with a C-terminal 10× His tag (human) (UniProt O75581). Nature of the assay: crystal structure; LRP6 E1E2–SOST_(tr177) complex co-expressed and co-purified; crystals at 298 K in 0.1 M HEPES pH 7.2, 0.15 M magnesium acetate, 80 mM sodium citrate, 10% PEG 8000; 3.8 Å; two copies of a 1:1 complex in the asymmetric unit; both purified.

The chains behind the UniProt entries cited, without tags or fusion partners. Where a name states a change or a piece, a line headed by the entry shows the natural chain unless it says otherwise. Residues count along the entry.
UniProt O75581, residues 21-630: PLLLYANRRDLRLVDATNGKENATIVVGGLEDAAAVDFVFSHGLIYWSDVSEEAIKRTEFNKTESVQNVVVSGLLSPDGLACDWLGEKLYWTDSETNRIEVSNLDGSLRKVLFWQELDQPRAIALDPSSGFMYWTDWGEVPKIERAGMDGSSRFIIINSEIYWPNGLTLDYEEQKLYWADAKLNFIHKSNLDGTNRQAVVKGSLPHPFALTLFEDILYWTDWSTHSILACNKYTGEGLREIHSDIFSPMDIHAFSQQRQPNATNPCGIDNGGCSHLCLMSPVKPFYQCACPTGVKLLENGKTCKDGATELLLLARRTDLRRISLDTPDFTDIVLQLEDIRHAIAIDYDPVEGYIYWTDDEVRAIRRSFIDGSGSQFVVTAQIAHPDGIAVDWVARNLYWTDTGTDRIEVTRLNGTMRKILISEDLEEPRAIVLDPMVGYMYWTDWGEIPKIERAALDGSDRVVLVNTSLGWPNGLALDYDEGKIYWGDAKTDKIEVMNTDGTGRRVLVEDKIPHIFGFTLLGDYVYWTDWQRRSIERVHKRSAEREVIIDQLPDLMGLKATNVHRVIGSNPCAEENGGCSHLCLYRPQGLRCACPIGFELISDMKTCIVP
UniProt Q9BQB4: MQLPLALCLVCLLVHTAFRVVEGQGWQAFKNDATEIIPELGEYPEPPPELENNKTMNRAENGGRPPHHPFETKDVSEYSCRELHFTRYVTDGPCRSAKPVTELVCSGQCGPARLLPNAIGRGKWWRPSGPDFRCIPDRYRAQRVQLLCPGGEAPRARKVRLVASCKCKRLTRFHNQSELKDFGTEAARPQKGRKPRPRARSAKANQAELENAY

No constants are given. Whether binding was seen depends on the method and setting. Some binding calls cover weakened binding; strength is not graded here.

As for “SOSTtr178 with an N-terminal His6-SUMO tag (from UniProt Q9BQB4 24-178) (domain or fragment)”, the binding entry in assay [1] is “binds”.
Regarding “human SOST_(tr177) (Q24-S177) (from UniProt Q9BQB4 24-177) (domain or fragment)”, the binding entry in assay [2] is reported as “binds”.
